Reference: paper PMC6576150
These are yes or no findings as the source states them, for the method shown. Binding seen in cells or lysates may run through a third protein. Some entries that bind do so weakly or less than the wild type. For some of these results: Where a sequence is shown, tags or fusion partners need not be part of it. Values belong to the molecule of their own block, whether it stands above or below them.

Tests used:
[1] = molecular target: Mta1-Avi-3xFLAG (mouse (endogenous in ES cells)) (UniProt Q8K4B0); assay: co-IP; anti-FLAG antibody on Protein G Sepharose; 200 μg nuclear extract of heterozygously targeted mouse ES cells in IP Buffer (50 mM Tris-HCl pH 7.5, 150 mM NaCl, 1 mM EDTA, 1% Triton X-100, 0.1% SDS, 0.1% DOC) with benzonase, 4°C overnight; last washes with 300 mM NaCl; western blot
[2] = molecular target: Mta2-GFP (mouse (endogenous in ES cells)) (UniProt Q9R190); assay: co-IP; GFP-Trap agarose beads; 200 μg nuclear extract of heterozygously targeted mouse ES cells in GFP IP buffer (10 mM Tris pH 7.5, 150 mM NaCl, 0.5 mM EDTA) with benzonase, 1 h at 4°C; western blot
[3] = molecular target: T1, Mta2-GFP (mouse (endogenous in ES cells)), Q9R190; assay: as above; conditions: remark: other sources report otherwise
T1 chain: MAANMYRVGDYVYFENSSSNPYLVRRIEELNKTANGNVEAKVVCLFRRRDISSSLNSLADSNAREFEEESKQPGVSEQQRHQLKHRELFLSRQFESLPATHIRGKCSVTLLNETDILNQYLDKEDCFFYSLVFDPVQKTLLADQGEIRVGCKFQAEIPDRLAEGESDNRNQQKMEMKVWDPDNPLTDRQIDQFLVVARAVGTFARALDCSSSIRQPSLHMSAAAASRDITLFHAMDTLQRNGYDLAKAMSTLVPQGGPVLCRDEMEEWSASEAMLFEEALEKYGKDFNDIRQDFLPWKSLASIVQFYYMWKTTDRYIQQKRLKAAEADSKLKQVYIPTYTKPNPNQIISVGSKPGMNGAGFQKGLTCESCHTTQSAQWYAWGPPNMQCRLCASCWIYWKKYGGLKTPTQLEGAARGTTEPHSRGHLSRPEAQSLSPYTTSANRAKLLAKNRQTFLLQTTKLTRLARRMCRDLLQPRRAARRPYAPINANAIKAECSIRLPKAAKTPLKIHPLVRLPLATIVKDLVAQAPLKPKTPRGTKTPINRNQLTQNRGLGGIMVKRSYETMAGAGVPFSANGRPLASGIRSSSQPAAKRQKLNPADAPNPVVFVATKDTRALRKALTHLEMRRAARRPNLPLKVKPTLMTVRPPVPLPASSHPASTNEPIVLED

[4] = molecular target: T2, Mta1-Avi-3xFLAG (mouse (endogenous in ES cells)), Q8K4B0; assay: co-IP; anti-FLAG antibody on Protein G Sepharose; 200 μg nuclear extract of heterozygously targeted mouse ES cells in IP Buffer (50 mM Tris-HCl pH 7.5, 150 mM NaCl, 1 mM EDTA, 1% Triton X-100, 0.1% SDS, 0.1% DOC) with benzonase, 4°C overnight; last washes with 300 mM NaCl; western blot; conditions: remark: other sources report otherwise
T2 chain: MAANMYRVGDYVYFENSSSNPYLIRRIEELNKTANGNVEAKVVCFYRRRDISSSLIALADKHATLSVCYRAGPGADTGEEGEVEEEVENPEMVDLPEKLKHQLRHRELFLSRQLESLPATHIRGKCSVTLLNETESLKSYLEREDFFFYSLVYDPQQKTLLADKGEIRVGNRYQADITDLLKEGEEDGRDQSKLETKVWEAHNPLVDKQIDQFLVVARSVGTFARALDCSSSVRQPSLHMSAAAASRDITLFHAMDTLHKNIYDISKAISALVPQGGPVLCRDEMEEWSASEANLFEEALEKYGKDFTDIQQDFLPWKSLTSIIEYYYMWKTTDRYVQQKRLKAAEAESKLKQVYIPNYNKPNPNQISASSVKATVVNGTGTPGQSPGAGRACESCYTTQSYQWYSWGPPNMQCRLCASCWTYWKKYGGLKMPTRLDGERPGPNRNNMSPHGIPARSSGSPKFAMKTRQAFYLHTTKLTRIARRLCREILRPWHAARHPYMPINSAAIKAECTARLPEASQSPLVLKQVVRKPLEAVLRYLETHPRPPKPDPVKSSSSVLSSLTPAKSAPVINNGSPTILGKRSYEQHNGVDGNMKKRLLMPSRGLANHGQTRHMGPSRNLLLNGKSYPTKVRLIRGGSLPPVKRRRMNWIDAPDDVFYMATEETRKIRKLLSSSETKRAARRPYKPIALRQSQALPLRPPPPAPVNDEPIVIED

Molecule: Mta1 (from UniProt Q8K4B0 1-715)
binding [2]: binds

B2: Mta1, Q8K4B0 1-715 (protein)
chain: T2 chain
binding [4]: binds

Now from value to molecule:

binding [1]: binds
Molecule: Mta2 (from UniProt Q9R190 1-668)

binding [3]: binds
B1: Mta2, Q9R190 1-668 (protein)
chain: T1 chain
